In the supplement of paper PMC12595434, “Development of retinoid nuclear receptor pathway antagonists through targeting aldehyde dehydrogenase 1A3” (iScience, 2025):
The other results are listed elsewhere or left out. This is a noisy data set.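 Tm was set to 64 °C where no melting was found, and many curves are irregular.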

Amino acid sequences for entries named in this document (tags omitted). A change or cut given only in a name is not applied to a line headed by its entry.
UniProt P61026: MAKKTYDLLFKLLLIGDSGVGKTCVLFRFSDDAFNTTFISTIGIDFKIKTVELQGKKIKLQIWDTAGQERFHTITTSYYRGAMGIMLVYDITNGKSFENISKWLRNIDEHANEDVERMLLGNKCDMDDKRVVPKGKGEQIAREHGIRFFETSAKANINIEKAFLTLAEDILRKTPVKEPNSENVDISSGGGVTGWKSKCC
UniProt P61421, whole entry: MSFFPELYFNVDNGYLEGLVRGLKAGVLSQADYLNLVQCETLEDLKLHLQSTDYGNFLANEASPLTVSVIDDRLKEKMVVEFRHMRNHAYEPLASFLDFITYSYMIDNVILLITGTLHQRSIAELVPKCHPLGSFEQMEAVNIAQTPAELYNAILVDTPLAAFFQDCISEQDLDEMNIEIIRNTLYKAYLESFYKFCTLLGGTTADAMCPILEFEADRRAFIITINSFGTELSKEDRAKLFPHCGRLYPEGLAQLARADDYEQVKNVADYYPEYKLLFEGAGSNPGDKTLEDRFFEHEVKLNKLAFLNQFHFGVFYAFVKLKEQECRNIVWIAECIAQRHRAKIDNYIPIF
UniProt P67870, whole entry: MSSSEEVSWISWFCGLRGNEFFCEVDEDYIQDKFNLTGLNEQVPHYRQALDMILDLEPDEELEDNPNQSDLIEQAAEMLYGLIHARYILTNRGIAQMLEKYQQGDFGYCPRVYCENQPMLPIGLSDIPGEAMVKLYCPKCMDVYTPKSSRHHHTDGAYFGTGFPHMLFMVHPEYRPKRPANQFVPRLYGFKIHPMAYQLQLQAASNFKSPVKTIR
UniProt P61970, whole entry: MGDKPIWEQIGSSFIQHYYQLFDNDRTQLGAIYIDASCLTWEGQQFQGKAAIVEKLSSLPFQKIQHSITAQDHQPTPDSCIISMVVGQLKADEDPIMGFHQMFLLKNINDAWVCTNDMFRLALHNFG
UniProt P51991: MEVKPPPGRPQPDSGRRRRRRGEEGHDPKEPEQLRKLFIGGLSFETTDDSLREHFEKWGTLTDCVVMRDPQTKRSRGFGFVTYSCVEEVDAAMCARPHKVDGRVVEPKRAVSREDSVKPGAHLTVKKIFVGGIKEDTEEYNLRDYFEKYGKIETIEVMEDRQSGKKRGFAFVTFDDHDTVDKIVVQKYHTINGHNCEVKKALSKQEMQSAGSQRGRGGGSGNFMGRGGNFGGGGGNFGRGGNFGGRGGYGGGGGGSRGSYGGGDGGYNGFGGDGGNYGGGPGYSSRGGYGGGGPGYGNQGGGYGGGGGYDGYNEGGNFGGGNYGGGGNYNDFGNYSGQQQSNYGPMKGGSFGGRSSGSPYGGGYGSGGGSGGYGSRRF
UniProt P55060: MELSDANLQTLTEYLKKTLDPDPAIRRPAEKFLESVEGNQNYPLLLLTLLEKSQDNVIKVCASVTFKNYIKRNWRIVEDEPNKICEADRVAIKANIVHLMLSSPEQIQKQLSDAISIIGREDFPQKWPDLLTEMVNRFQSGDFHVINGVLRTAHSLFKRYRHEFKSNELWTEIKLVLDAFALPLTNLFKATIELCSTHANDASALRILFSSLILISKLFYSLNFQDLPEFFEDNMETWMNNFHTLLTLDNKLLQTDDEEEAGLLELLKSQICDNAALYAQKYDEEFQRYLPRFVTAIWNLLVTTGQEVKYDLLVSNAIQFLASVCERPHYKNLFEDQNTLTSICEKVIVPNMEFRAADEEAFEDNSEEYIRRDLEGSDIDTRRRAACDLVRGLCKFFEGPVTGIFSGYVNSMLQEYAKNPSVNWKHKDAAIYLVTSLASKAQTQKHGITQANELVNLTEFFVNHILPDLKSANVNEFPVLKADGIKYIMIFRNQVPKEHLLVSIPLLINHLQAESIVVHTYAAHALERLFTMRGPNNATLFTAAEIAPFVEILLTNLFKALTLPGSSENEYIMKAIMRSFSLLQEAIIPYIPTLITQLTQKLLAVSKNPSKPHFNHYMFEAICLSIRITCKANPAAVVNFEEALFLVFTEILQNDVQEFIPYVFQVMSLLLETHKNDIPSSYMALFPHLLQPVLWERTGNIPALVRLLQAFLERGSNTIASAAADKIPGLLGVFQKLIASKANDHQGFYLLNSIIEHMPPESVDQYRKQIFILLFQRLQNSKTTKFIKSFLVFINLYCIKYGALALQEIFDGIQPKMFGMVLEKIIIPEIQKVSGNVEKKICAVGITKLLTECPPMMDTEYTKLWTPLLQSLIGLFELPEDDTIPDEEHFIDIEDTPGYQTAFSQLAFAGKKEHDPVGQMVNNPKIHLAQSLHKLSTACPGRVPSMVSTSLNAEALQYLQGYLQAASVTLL
UniProt P60903, whole entry: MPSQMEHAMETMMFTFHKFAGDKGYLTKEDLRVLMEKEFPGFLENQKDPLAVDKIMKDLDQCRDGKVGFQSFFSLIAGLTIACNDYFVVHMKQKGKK
UniProt P61960, whole entry: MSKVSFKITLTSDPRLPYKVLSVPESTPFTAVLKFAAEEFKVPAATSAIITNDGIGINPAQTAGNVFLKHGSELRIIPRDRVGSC
UniProt P62873, whole entry: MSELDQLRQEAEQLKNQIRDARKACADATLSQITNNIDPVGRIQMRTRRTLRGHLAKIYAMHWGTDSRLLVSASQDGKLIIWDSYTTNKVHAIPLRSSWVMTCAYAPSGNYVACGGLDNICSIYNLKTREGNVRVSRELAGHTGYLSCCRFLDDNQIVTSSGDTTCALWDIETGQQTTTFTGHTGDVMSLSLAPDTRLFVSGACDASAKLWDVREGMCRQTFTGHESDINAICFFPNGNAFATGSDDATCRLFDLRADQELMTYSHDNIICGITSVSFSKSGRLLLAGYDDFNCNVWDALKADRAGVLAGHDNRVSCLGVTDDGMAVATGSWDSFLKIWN
UniProt P56937: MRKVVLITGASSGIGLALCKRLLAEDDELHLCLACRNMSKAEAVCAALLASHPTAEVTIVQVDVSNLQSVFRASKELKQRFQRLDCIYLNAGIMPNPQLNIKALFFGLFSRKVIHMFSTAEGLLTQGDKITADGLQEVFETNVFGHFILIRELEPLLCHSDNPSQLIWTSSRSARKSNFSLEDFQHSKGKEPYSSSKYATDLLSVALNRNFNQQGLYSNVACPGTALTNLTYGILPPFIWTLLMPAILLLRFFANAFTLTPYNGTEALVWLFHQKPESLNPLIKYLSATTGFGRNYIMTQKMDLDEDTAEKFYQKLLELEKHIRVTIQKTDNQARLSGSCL
UniProt P62995: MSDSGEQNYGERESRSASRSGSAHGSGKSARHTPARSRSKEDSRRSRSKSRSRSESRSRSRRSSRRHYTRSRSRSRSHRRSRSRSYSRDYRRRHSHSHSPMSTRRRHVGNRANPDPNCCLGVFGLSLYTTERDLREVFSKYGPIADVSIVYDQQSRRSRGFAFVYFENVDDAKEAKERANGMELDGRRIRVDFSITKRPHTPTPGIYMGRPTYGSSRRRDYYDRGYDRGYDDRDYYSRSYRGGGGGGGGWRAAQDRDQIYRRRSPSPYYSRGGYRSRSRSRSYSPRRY
UniProt P56377: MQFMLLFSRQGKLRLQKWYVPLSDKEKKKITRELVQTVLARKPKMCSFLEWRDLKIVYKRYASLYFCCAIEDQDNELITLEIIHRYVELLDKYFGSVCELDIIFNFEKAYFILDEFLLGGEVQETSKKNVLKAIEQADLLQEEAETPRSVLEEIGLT
UniProt P54253: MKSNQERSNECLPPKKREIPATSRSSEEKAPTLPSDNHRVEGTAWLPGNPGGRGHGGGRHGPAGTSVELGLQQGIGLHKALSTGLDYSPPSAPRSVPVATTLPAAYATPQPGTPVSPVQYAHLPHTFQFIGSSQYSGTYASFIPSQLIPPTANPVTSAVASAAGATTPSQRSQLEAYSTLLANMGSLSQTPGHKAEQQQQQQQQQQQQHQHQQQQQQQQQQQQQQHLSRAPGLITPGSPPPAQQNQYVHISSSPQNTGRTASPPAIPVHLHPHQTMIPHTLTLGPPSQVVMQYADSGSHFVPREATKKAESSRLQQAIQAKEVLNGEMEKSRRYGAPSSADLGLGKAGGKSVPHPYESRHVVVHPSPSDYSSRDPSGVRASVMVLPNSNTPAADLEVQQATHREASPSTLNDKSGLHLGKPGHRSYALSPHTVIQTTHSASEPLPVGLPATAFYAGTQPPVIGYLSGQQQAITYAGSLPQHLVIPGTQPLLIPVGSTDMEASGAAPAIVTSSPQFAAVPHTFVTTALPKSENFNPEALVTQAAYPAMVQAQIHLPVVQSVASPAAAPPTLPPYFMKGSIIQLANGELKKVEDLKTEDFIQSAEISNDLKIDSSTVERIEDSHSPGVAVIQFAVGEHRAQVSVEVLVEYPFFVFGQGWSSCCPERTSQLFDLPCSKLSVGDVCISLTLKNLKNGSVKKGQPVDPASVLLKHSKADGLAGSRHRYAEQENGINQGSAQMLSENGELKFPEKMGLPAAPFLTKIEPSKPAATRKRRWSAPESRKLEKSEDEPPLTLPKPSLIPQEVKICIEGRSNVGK
UniProt P61769, whole entry: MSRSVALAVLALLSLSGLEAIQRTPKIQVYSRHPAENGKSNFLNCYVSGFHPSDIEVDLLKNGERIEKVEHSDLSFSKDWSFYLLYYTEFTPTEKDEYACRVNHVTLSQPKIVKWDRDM
UniProt P55039: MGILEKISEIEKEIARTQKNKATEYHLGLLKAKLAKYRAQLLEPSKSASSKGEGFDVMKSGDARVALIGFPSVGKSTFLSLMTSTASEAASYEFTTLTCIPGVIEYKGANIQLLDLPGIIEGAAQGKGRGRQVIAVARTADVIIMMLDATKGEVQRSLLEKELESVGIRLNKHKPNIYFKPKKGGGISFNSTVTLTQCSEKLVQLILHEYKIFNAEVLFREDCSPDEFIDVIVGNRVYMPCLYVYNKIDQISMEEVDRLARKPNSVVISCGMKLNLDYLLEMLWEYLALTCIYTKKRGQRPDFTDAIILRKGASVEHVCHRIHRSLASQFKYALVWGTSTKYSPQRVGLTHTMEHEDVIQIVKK
UniProt P53041: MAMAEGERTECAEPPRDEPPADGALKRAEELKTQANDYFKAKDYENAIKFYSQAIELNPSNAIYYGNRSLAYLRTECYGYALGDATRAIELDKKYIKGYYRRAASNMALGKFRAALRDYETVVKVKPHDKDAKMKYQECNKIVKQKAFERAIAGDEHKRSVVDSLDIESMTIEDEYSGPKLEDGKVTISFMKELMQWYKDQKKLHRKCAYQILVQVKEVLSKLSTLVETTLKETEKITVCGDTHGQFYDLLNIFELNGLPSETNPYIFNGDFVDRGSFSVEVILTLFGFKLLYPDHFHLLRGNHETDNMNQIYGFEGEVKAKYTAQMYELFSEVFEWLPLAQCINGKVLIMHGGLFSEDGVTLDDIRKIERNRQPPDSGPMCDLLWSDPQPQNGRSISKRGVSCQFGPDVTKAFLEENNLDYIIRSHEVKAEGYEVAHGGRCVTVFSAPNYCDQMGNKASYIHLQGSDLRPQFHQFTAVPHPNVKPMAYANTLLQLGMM
UniProt P56282: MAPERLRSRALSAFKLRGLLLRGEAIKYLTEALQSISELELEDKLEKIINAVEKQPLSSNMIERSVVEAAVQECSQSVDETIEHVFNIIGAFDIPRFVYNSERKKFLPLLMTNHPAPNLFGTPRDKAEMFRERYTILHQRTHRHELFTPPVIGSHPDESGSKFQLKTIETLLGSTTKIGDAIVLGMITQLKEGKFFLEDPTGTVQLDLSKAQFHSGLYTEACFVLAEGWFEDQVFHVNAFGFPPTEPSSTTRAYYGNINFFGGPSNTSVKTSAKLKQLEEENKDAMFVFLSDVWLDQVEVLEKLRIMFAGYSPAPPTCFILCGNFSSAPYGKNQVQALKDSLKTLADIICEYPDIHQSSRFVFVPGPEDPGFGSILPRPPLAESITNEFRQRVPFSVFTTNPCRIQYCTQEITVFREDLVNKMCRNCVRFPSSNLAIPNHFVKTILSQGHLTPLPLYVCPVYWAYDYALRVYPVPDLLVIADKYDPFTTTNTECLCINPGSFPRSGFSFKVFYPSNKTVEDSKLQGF
UniProt P53365: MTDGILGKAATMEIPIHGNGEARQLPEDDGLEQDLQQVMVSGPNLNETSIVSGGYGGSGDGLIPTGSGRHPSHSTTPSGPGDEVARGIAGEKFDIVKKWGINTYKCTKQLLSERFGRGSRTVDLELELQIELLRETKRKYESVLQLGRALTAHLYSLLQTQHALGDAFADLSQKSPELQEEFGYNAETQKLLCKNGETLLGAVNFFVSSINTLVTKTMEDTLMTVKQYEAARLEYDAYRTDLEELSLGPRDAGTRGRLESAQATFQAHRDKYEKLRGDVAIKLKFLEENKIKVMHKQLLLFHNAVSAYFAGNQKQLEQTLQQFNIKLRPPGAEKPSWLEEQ
UniProt P53680: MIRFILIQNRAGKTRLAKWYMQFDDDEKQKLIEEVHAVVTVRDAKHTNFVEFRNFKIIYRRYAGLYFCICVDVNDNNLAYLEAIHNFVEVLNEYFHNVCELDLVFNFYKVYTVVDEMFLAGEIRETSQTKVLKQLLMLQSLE
UniProt P57729: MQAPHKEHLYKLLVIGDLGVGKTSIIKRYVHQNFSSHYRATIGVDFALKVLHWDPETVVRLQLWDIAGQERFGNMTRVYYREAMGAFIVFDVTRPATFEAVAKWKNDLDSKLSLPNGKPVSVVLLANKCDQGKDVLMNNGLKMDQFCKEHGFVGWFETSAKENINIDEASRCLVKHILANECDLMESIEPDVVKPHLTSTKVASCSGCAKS

Compound: CCc1cnccc1C(=O)Nc1cc2c(cc1F)NC(=O)CC2
Assay: melting temperature shift (DMSO Tm minus MBE1-treated Tm) in cellular thermal proteome profiling; higher = less thermal stabilization by MBE1 (negative = stabilized by MBE1)
Conditions: A375

Row | Target | melting temperature shift (MBE1 concentration: 100 nM) [°C] | melting temperature shift (MBE1 concentration: 1 uM) [°C]
1 | COPS2 (UniProt P61201) | 0.355 | 0.651
2 | UniProt P52756 | -0.333 | -0.557
3 | RPS16 (UniProt P62249) | -0.562 | 0.742
4 | RAB10 (UniProt P61026) | -1.72 | 0.543
5 | ATP6V0D1 (UniProt P61421) | -1.23 | -2.86
6 | CSNK2B (UniProt P67870) | -2.15 | -0.871
7 | COPB1 (UniProt P53618) | -0.624 | 0.275
8 | MYL6 (UniProt P60660) | -0.415 | -0.208
9 | NDUFA6 (UniProt P56556) | 0.44 | 0.128
10 | RPS24 (UniProt P62847) | -0.788 | -0.858
11 | NUTF2 (UniProt P61970) | -0.838 | 0.353
12 | UniProt P61601 | -1.31 | 1.04
13 | NAGLU (UniProt P54802) | -2.69 | -0.514
14 | MSH6 (UniProt P52701) | -0.5 | -0.237
15 | UBE2H (UniProt P62256) | -0.713 | 0.372
16 | PPP2CA (UniProt P67775) | -0.335 | -0.235
17 | THOP1 (UniProt P52888) | -0.828 | -0.952
18 | CDC42 (UniProt P60953) | -1.33 | -0.932
19 | SMS (UniProt P52788) | -0.855 | 1.09
20 | ALDH18A1 (UniProt P54886) | -0.235 | 0.44
21 | ATN1 (UniProt P54259) | -8.17 | 0.892
22 | RPL32 (UniProt P62910) | -1.18 | -0.0886
23 | TUBA4A (UniProt P68366) | -0.181 | 0.241
24 | HNRNPA3 (UniProt P51991) | 0.183 | -0.543

Row | Target | melting temperature shift (MBE1 concentration: 100 nM) [°C] | melting temperature shift (MBE1 concentration: 1 uM) [°C]
25 | SEC61A1 (UniProt P61619) | -0.845 | 0.0958
26 | UniProt P54132 | -2.55 | 2.57
27 | DYNLL1 (UniProt P63167) | 0.0672 | -0.702
28 | UniProt P54274 | 0.177 | -2.29
29 | UniProt P55058 | -1.76 | 1.02
30 | SRP54 (UniProt P61011) | 0.678 | 0.299
31 | UBA52 (UniProt P62987) | -2.57 | -1.65
32 | CSE1L (UniProt P55060) | 0.263 | -0.14
33 | UniProt P54922 | -0.134 | 0.456
34 | PSMC1 (UniProt P62191) | -0.463 | 0.951
35 | CKS1B (UniProt P61024) | -1.68 | -3.63
36 | MLLT4 (UniProt P55196) | -2.7 | -2.79
37 | ZNF143 (UniProt P52747) | 0.153 | -0.745
38 | SUCLG1 (UniProt P53597) | 0.302 | 0.793
39 | S100A10 (UniProt P60903) | -0.778 | 0.301
40 | FKBP1A (UniProt P62942) | -1.83 | -0.867
41 | UniProt P63267 | 0.148 | 0.435
42 | UniProt P58335 | -2.33 | -0.055
43 | CAPZA1 (UniProt P52907) | -1.06 | 1.21
44 | RPL10A (UniProt P62906) | -0.543 | -0.165
45 | SNU13 (UniProt P55769) | -1.24 | -1.58
46 | RPS13 (UniProt P62277) | 0.794 | -0.281
47 | RRAS2 (UniProt P62070) | -2.06 | 1.03
48 | CTBP2 (UniProt P56545) | 0.0604 | 0.456

Row | Target | melting temperature shift (MBE1 concentration: 100 nM) [°C] | melting temperature shift (MBE1 concentration: 1 uM) [°C]
49 | UniProt P61326 | 0.0244 | -1.66
50 | CLNS1A (UniProt P54105) | -0.556 | 0.503
51 | UFM1 (UniProt P61960) | 0.503 | -0.0672
52 | NAPA (UniProt P54920) | -0.583 | -0.633
53 | UniProt P62068 | -0.527 | 0.00671
54 | GNAI1 (UniProt P63096) | -1.17 | -0.62
55 | GNB1 (UniProt P62873) | -0.788 | -1.31
56 | ACTG1 (UniProt P63261) | -2.46 | 0.0733
57 | STAT2 (UniProt P52630) | 0.156 | -0.115
58 | RPL26 (UniProt P61254) | -0.501 | -0.232
59 | POLG (UniProt P54098) | 1.23 | -0.183
60 | HSD17B7 (UniProt P56937) | -0.446 | 0.195
61 | EIF3B (UniProt P55884) | 0.0978 | -0.122
62 | RPL31 (UniProt P62899) | -1.41 | -2.57
63 | UniProt P62308 | -1.81 | 0.914
64 | RAB14 (UniProt P61106) | -0.714 | -0.697
65 | HADHB (UniProt P55084) | 0.959 | 0.318
66 | HNRNPF (UniProt P52597) | -0.776 | -0.663
67 | TRA2B (UniProt P62995) | -1.5 | -0.0469
68 | RPS6KA3 (UniProt P51812) | 0.189 | -0.263
69 | UniProt P56377 | 0.232 | -1.29
70 | SYNJ2BP (UniProt P57105) | -0.0855 | -0.165
71 | ADAR (UniProt P55265) | -0.787 | -0.372
72 | ACLY (UniProt P53396) | -0.174 | 0.202

Row | Target | melting temperature shift (MBE1 concentration: 100 nM) [°C] | melting temperature shift (MBE1 concentration: 1 uM) [°C]
73 | PPP4C (UniProt P60510) | -1.47 | 0.201
74 | UniProt P54253 | 1.75 | 2.21
75 | UniProt P63162 | -1.2 | -3.27
76 | RPL30 (UniProt P62888) | -0.065 | -0.366
77 | RPS23 (UniProt P62266) | -0.293 | 1.15
78 | B2M (UniProt P61769) | -5.39 | -6.34
79 | DRG2 (UniProt P55039) | -0.11 | 0.391
80 | RPL27 (UniProt P61353) | -0.226 | 0.0872
81 | UniProt P68371 | -0.856 | 0.965
82 | TMEM33 (UniProt P57088) | -1.31 | -1.05
83 | PPP5C (UniProt P53041) | -0.287 | 0.83
84 | C21ORF59 (UniProt P57076) | 0 | 0.0256
85 | RACK1 (UniProt P63244) | -0.605 | -0.653
86 | PSMC5 (UniProt P62195) | -0.63 | 0.79
87 | PPP3R1 (UniProt P63098) | -0.979 | -0.255
88 | RPS18 (UniProt P62269) | -0.556 | 0.393
89 | NAP1L1 (UniProt P55209) | 0.415 | 0.287
90 | PMS2 (UniProt P54278) | -0.513 | -0.423
91 | UBE2I (UniProt P63279) | -0.299 | -0.055
92 | NDUFA8 (UniProt P51970) | -1.58 | -0.563
93 | RPS4X (UniProt P62701) | -0.733 | 0.503
94 | MARS (UniProt P56192) | 0.243 | -0.0855
95 | SNRPF (UniProt P62306) | 0.476 | 1.58
96 | UniProt P56282 | -0.448 | -0.0128

Record cards, from the list above:
UniProt P56377 in the list: melting temperature shift (MBE1 concentration: 100 nM) [°C]: 0.232; melting temperature shift (MBE1 concentration: 1 uM) [°C]: -1.29
NDUFA8 (UniProt P51970) in the list: melting temperature shift (MBE1 concentration: 100 nM) [°C]: -1.58; melting temperature shift (MBE1 concentration: 1 uM) [°C]: -0.563
UniProt P63162 in the list: melting temperature shift (MBE1 concentration: 100 nM) [°C]: -1.2; melting temperature shift (MBE1 concentration: 1 uM) [°C]: -3.27
RAB14 (UniProt P61106) in the list: melting temperature shift (MBE1 concentration: 100 nM) [°C]: -0.714; melting temperature shift (MBE1 concentration: 1 uM) [°C]: -0.697

(list continues)

Row | Target | melting temperature shift (MBE1 concentration: 100 nM) [°C] | melting temperature shift (MBE1 concentration: 1 uM) [°C]
97 | UniProt P52435 | -0.0333 | -0.839
98 | DCAF7 (UniProt P61962) | 0.867 | -0.0305
99 | PEX3 (UniProt P56589) | 0.314 | -0.281
100 | UniProt P59780 | 0.495 | 0.336
101 | EPHB3 (UniProt P54753) | -0.0855 | 0.983
102 | RPL15 (UniProt P61313) | -0.788 | -0.305
103 | RABGGTB (UniProt P53611) | 1.17 | 0.336
104 | ARFIP2 (UniProt P53365) | -0.458 | -0.00611
105 | RHOA (UniProt P61586) | -1.58 | -3.45
106 | AP2S1 (UniProt P53680) | 0.25 | 0.427
107 | VAV2 (UniProt P52735) | -0.607 | -0.722
108 | UniProt P68363 | -2.11 | 1.04
109 | ARPP19 (UniProt P56211) | -2.32 | -0.275
110 | ARFIP1 (UniProt P53367) | 0.122 | 0.44
111 | RPL7A (UniProt P62424) | -1.13 | -0.867
112 | RPL37A (UniProt P61513) | -0.69 | 0
113 | VCP (UniProt P55072) | -1.28 | -1.28
114 | EPPK1 (UniProt P58107) | 0.629 | -0.409
115 | RPS21 (UniProt P63220) | -0.697 | 1.24
116 | UniProt P57729 | -0.625 | 0.104
117 | STXBP1 (UniProt P61764) | -0.518 | -0.193
118 | ETF1 (UniProt P62495) | -0.266 | 0.299
119 | SLC12A2 (UniProt P55011) | -0.711 | -0.181
120 | DSTN (UniProt P60981) | -0.825 | -0.114
